This note sets out measurements from publication PMC9366055.

Results are given in words; binding and its absence hold for the method and conditions named. For part of these data: Binding calls can cover weak binding; strength is not graded here. For part of these data: Binding seen in cells or lysates may run through a third protein. For part of these data: Where a sequence is shown, tags or fusion partners need not be part of it.

The target in assay [1] is T1, GST-HpaA (X. euvesicatoria) (UniProt Q9WWF9).
T1 sequence: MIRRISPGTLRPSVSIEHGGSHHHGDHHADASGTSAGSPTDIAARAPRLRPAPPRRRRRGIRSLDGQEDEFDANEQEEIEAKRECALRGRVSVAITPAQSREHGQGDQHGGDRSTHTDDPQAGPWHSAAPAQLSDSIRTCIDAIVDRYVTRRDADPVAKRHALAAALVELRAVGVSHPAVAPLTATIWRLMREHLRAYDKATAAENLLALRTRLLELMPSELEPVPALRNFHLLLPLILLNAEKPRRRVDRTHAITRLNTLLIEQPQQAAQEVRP
Briefly: pull-down; GST or GST fusion from E. coli BL21 (DE3) lysate immobilised on glutathione sepharose, washed, incubated with a bacterial lysate containing the c-Myc-tagged partner for 2 h at 4°C; eluted with Laemmli buffer; immunoblot with c-Myc- and GST-specific antibodies; only the target purified.

In assay [2] the target is T2, HpaA-c-Myc (expressed in X. euvesicatoria strain 85*) (X. euvesicatoria strain 85-10) (UniProt Q9WWF9).
T2 sequence: T1 sequence
Briefly: co-IP; lysate of X. euvesicatoria strain 85* with or without HpaA-c-Myc, grown under T3S-permissive conditions (MA pH 5.3), PBS with 0.1% Nonidet-P40; anti-c-Myc antibody and protein G agarose over night at 4°C; immunoblot with c-Myc- and HrcN-specific antibodies.

For assay [3], the target named is GST-HpaC (X. euvesicatoria). Briefly: pull-down; GST or GST fusion from E. coli BL21 (DE3) lysate immobilised on glutathione sepharose, washed, incubated with a bacterial lysate containing the c-Myc-tagged partner for 2 h at 4°C; eluted with Laemmli buffer; immunoblot with c-Myc- and GST-specific antibodies; only the target purified.
The target of assay [4] is GST-HrcL (X. euvesicatoria). The assay is described as above.
Assay [5] deals with GST-HrcN (X. euvesicatoria). Described as above.
The target of assay [6] is GST-HrcU (X. euvesicatoria). The description is as above.
Assay [7] addresses HrcUC derivative with C-terminal T25 fusion partner (X. euvesicatoria strain 85-10). Briefly: two-hybrid; BACTH: T18 and T25 fusions in E. coli BTH101, spotted on LB plates with X-gal and 2 mM IPTG, read after five to 6 days at room temperature.
For assay [8], the target named is HrcUC derivative with C-terminal T18 fusion partner (X. euvesicatoria strain 85-10). Described as above.
The target of assay [9] is T18-HrcL (X. euvesicatoria). The assay is described as above.
For assay [10], the target named is T18-HrcN (X. euvesicatoria). The description is as above.

On to HrcL-c-Myc (X. euvesicatoria), for which, in assay [1], the binding entry was “binds”.
Consider HrcN (enzyme), for which the binding entry in assay [2] is given as “binds”.
For the molecule HpaC-c-Myc (X. euvesicatoria), the binding result in [1] is given as “binds”.

B1: HpaA-c-Myc (protein, UniProt Q9WWF9 1-275)
chain: T1 sequence
With B1, the binding entry in assay [3], in assay [4], in [5] and in [6] was “binds” throughout.

B2: HpaA-T18 (protein, UniProt Q9WWF9 1-275)
chain: T1 sequence
Take B2: in assay [7], the binding entry was “no binding”.

B3: T18-HpaA (protein, UniProt Q9WWF9 1-275)
chain: T1 sequence
For the molecule B3, in [7], the binding result was “no binding”.

B4: HpaA-T25 (protein, UniProt Q9WWF9 1-275)
chain: T1 sequence
For B4, the binding result is given as “no binding” in [8], “binds weakly” in [9] and “binds” in assay [10].
